Experiment [1] addresses β2M naturally expressed in THP-1 macrophages (human (endogenous in THP-1)) (UniProt P61769). As to the kind of experiment: co-IP; only the binder purified.
The target in experiment [2] is β2M present in pleural fluid (human (endogenous in pleural fluid)) (UniProt P61769). The experiment can be described thus: ELISA.

Chains of the proteins cited; added tags and fusions are not shown.
UniProt P61769: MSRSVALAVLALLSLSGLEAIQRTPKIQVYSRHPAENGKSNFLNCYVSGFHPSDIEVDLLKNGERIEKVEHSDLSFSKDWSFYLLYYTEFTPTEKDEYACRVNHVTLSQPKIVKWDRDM
UniProt P9WNK5: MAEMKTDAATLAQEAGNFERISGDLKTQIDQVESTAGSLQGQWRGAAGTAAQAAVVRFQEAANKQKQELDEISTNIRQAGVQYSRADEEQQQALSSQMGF

Results are given in words; binding and its absence hold for the method and conditions named. For some of these results: In cells and extracts the contact can be indirect. Some entries that bind do so weakly or less than the wild type.

In the case of “His-tagged CFP-10 (pET23a) (from UniProt P9WNK5 1-100)”, in experiment [1], the binding result is on record as “no binding”. Still for that read-out and setting: under “recombinant His-tagged ESAT-6 (pET23a-ESAT-6) (from UniProt P9WNK7 1-95)” stands “binds”; under “recombinant ESAT-6:CFP-10 complex (from UniProt P9WNK7;P9WNK5)”, “binds”. With “ESAT-6 present in pleural fluid of pleural TB patients (from UniProt P9WNK7 1-95)”, in experiment [2], the binding result is on record as “binds”.

The values above are taken from PMC4214792.
